The record followed here is the supplement of paper PMC10398353.

Where a name gives a salt, the structure may show the parent alone. ± gives the standard deviation of the averaged measurements. Some of the results follow. The data scatter; read single values as rough.

The test system of this assay is Salmonella enterica serovar Typhimurium ST313 D23580. Put plainly: normalized bacterial growth (OD600 20 h minus 0 h, interquartile-mean normalized) (fraction of plate interquartile mean); higher = more bacterial growth (less inhibition). As to conditions: LPM (pH 5.8, low phosphate, low Mg2+), concentration: 10 µM, temperature: 37 °C.
In the case of `C=C[C@]12CN(C)[C@@H]3[C@H]4CO[C@H](C[C@H]41)[C@]1(C(=O)Nc4ccccc41)[C@@H]32`, the normalized bacterial growth came to 1.06.
For `C=C[C@]12CN(C)[C@@H]3[C@H]4CO[C@H](C[C@H]41)[C@]1(C(=O)Nc4ccccc41)[C@@H]32` [Gelsemine], the normalized bacterial growth is 1.23.
In turn, `Cc1c2ccncc2c(C)c2c1[nH]c1ccccc12` gave a normalized bacterial growth of 1.22.
The molecule `C=CCc1ccccc1OCC(O)CNC1(C)CCC(C(C)(C)NC(=O)CBr)CC1` (stereo not given) [Bromoacetyl alprenolol menthane] yielded a normalized bacterial growth of 1.45.
As for `CC(=O)OCC(=O)[C@H]1CC[C@H]2[C@@H]3CC[C@H]4C[C@H](O)CC[C@]4(C)[C@H]3C(=O)C[C@]12C` [Alfadolone acetate], the figure is 1.13.
On to `CC(=O)NBr` [N-Bromoacetamide], for which the normalized bacterial growth stood at 1.09.
The same measure for `CSC(=S)NCc1c[nH]c2ccccc12`: 1.2; for `COS(C)(=O)=O`: 0.985; for `CC(=O)OC1CCC23C(=O)OC45CCC(C6=CC(=O)OC6)C4(C)CCC2C5CCC3(O)C1` (stereo not given): 1.29.
For `CCCCN(CC)c1c([N+](=O)[O-])cc(C(F)(F)F)cc1[N+](=O)[O-]`, the normalized bacterial growth worked out at 1.
As for `NCc1cc(O)no1` [Muscimol hydrobromide], the figure is 1.03.
The same measure for `COc1cc2c(cc1OC)C(C)NCC2` (stereo not given): 0.795.
Molecule `NC(=O)CN1CCCC1=O` [Piracetam] registered a normalized bacterial growth of 1.08.
As for `COc1c2c3c4c(c(OC)c(=O)c5c(O)cc(OC)c(c6c(OC)cc(O)c(c1=O)c63)c54)[C@@H](C(C)=O)[C@@](C)(O)C2`, the figure is 1.24; as for `O=P1(NCCCl)OCCCN1CCCl` (stereo not given), 0.0464.
Take `CO[C@H](C)[C@](O)(C(=O)OCC1=CCN2CC[C@H](O)[C@@H]12)C(C)C` [Heliotrine]: the normalized bacterial growth is 0.976.
The same measure for `CO[C@H](C)[C@](O)(C(=O)OCC1=CCN2CC[C@H](O)[C@@H]12)C(C)C`: 0.969; for `Oc1ccc2c3c1O[C@H]1c4oc5ccccc5c4C[C@@]4(O)[C@@H](C2)N(CC2CC2)CC[C@]314` [Naltriben methanesulfonate]: 0.739; for `C=C(C)[C@@H]1[C@H]2OC(=O)[C@@H]1[C@]1(O)C[C@H]3O[C@]34C(=O)O[C@H]2[C@]14C`: 0.78.
For the molecule `C=C(C)[C@@H]1[C@H]2OC(=O)[C@@H]1[C@]1(O)C[C@H]3O[C@]34C(=O)O[C@H]2[C@]14C` [Picrotoxinin], the normalized bacterial growth was found to be 1.13.
As for `CC(C)c1c(CN(C)C(C)Cc2ccccc2)n(C)n(-c2ccccc2)c1=O` (stereo not given), the normalized bacterial growth came to 1.14.
As for `N#CCCN` [3-Aminopropionitrile fumarate], the figure is 1.07; as for `Oc1ccc(Cl)cc1`, 1.2; as for `Cc1cccc(C)c1NC1=NCCCS1`, 1.11.
As for `Cc1cccc(C)c1NC1=NCCCS1` [Xylazine hydrochloride], the figure is 0.651; as for `CCNC(=O)[C@H]1O[C@@H](n2cnc3c(N)ncnc32)[C@H](O)[C@@H]1O` [5'-N-Ethylcarboxamidoadenosine], 1.19; as for `O=C1CCC[C@@H]2[C@H]3CCCN4CCC[C@@H](CN12)[C@@H]34`, 0.993.
The same measure for `CC(=O)OCC1=C(C(=O)O)N2C(=O)[C@@H](NC(=O)CCC[C@@H](N)C(=O)O)[C@H]2SC1`: 0.807.
Take `COc1c2c(cc3c1OCO3)CC[N+](C)=C2`: the normalized bacterial growth is 1.21.
Take `Cc1ccc(S(=O)(=O)N[C@@H](CCCCN)C(=O)CCl)cc1` [Na-p-Tosyl-L-lysine chloromethyl ketone hydrochloride]: the normalized bacterial growth was found to be 1.01.
As for `CCCN1CCC[C@@H](c2cccc(O)c2)C1` [S(-)-3PPP hydrochloride], the figure is 1.02; as for `CC(C)(C)[C@]1(O)CC2OC(=O)CC23C(=O)OC2OC(=O)[C@H](O)C231` (stereo not given in full), 1.22; as for `C=C1[C@@H](C)[C@H]2[C@H](Cc3ccccc3)NC(=O)[C@]23OC(=O)/C=C/[C@H](O)CCC[C@@H](C)C/C=C/[C@H]3[C@@H]1O`, 1.05.
The same measure for `ClC1=C(Cl)C2(Cl)C3C4C=CC(C4)C3C1(Cl)C2(Cl)Cl` (stereo not given): 1.14; for `NC(=O)C[S+]([O-])C(c1ccccc1)c1ccccc1` (stereo not given): 0.64.
As for `COc1cc2c(c(OC)c1OC)-c1ccc(O)c(=O)cc1[C@@H](N)CC2` [Trimethylcolchicinic acid], the figure is 0.938; as for `CC[C@@H](C(=O)O)[C@@H]1O[C@@H]([C@@H](C)[C@H](O)[C@H](C)C(=O)[C@H](CC)[C@H]2O[C@]3(C=C[C@@H](O)[C@]4(CC[C@@](C)([C@H]5CC[C@](O)(CC)[C@H](C)O5)O4)O3)[C@H](C)C[C@@H]2C)[C@@H](C)C[C@@H]1C`, 0.603; as for `COC(=O)COc1cc(Cl)c(Cl)cc1Cl`, 1.28.
`CC[C@@H]1/C=C/C=C/C[C@H](C)[C@H](O)[C@](C)(O)C(=O)[C@H](C)[C@@H](O)[C@H](C)C(=O)[C@H](C)[C@@H](O)[C@H](C)/C=C/C(=O)O[C@H]2[C@@H](C)[C@@H](CC1)O[C@@]1(CC[C@@H](C)[C@@H](C[C@H](C)O)O1)[C@@H]2C` displayed a normalized bacterial growth of 1.1.
Regarding `Cc1c(N)nc([C@H](CC(N)=O)NC[C@H](N)C(N)=O)nc1C(=O)N[C@H](C(=O)N[C@H](C)[C@@H](O)[C@H](C)C(=O)N[C@H](C(=O)NCCc1nc(-c2nc(C(=O)NCCC[S+](C)C)cs2)cs1)[C@@H](C)O)[C@@H](OC1OC(CO)C(O)C(O)C1OC1OC(CO)C(O)C(OC(N)=O)C1O)c1cnc[nH]1` (stereo not given in full), the normalized bacterial growth amounted to 1.37.
As for `CC1=C[C@]23C(=O)[C@@H](C=C(COC(=O)c4ccccc4)[C@@H](O)[C@]2(O)[C@H]1OC(=O)c1ccccc1)[C@H]1[C@@H](C[C@H]3C)C1(C)C`, the figure is 1.04; as for `C[C@@H](CO)NC(=O)[C@@H]1C=C2c3cccc4[nH]cc(c34)C[C@H]2N(C)C1`, 1.11.
As for `CNCC(O)c1ccc(O)c(OC)c1` (stereo not drawn) [Metanephrine hydrochloride DL], the figure is 1.24; as for `Clc1ccc(C(OCCN2CCCCC2)c2ccccc2)cc1` (stereo not given) [Cloperastine hydrochloride], 0.882.
Molecule `CN1CCN(C(=O)OC2c3nccnc3C(=O)N2c2ccc(Cl)cn2)CC1` (stereo not given) had a normalized bacterial growth of 1.11.
Molecule `CC(Cc1ccccc1)NCCC(c1ccccc1)c1ccccc1` (stereo not given) [Prenylamine lactate] gave a normalized bacterial growth of 0.767.
As to `CC(=O)NC1CCSC1=O` (racemic) [N-Acetyl-DL-homocysteine Thiolactone], the normalized bacterial growth turned out to be 1.13.
`C[C@]12CC[C@H](O)C[C@H]1CC[C@@H]1[C@@H]2C[C@@H](O)[C@]2(C)[C@@H](C3=CC(=O)OC3)CC[C@]12O` [Digoxigenin] came in with a normalized bacterial growth of 1.17.
As to `C[C@]12CC[C@H](O)C[C@H]1CC[C@@H]1[C@@H]2C[C@@H](O)[C@]2(C)[C@@H](C3=CC(=O)OC3)CC[C@]12O`, the normalized bacterial growth is 0.901.
As for `NCCc1c[nH]c2ccccc12` [Tryptamine hydrochloride], the figure is 0.643.
As for `NCCc1c[nH]c2ccccc12`, the figure is 1.02.
As for `Clc1ccc(N2C[C@H]3CC[C@@H](C2)N3)nn1`, the figure is 1.23; as for `CC(=O)O[C@H]1[C@H]2O[C@]23[C@@H]2CC[C@@H]4C[C@@H](O)CC[C@]4(C)[C@H]2CC[C@]3(C)[C@H]1c1ccc(=O)oc1`, 0.735; as for `C=CC[C@]1(O)CC[C@H]2[C@@H]3CCC4=CC(=O)CCC4=C3C=C[C@@]21C`, 1.01.
Molecule `CN1C(=O)[C@]23CC4=CC=C[C@H](O)[C@H]4N2C(=O)[C@@]1(CO)SS3` registered a normalized bacterial growth of 0.0766.
In turn, `CNC(=O)ON=C(C)SC` yielded a normalized bacterial growth of 0.94.
The same measure for `COc1cc(OC)c2c(c1)O[C@H](c1ccc(OC)c(OC)c1)[C@@H](O)C2`: 0.764; for `COc1cc2c3cc1Oc1cc(ccc1O)C[C@@H]1c4c(cc(OC)c(O)c4Oc4cccc(c4)C[C@@H]3N(C)CC2)CC[N+]1(C)C` [Tubocurarine chloride pentahydrate (+)]: 0.903; for `OC[C@@H]1CCCN2CCCC[C@H]12`: 1.09.
In turn, `C1CCc2nnnn2CC1` [Pentylenetetrazole] showed a normalized bacterial growth of 0.874.
As for `COc1cc2c(cc1O)[C@@H]1Cc3ccc(OC)c(O)c3CN1CC2`, the figure is 0.872; as for `Cn1cnc(CCN)c1` [1-Methylhistamine dihydrochloride], 0.968; as for `C=C[C@H]1CN2CC[C@H]1C[C@@H]2[C@@H](O)c1ccnc2ccccc12`, 0.685.
As for `C=C[C@H]1CN2CC[C@H]1C[C@@H]2[C@@H](O)c1ccnc2ccccc12` [Cinchonine], the figure is 1.26.
Consider `C=C1[C@@H]2CC[C@H]3[C@]4(C)C[C@H](O[C@@H]5O[C@H](CO)[C@@H](OS(=O)(=O)O)[C@H](OS(=O)(=O)O)[C@H]5OC(=O)CC(C)C)C[C@@H](C(=O)O)[C@H]4CC[C@]3(C2)[C@@H]1O` [Atractyloside potassium salt], for which the normalized bacterial growth was 1.05.
`CC(Cc1ccc(O)cc1)NCC(O)c1cc(O)cc(O)c1` (stereo not given) [Fenoterol hydrobromide] registered a normalized bacterial growth of 1.13.
As for `CN(N=O)c1ccc(O)c(O)c1` ["Me-3,4-dephostatin"], the figure is 0.782; as for `CSc1nc(NC(C)C)nc(NC(C)C)n1`, 1.17; as for `CC1=CC(=O)C2=C(C)C[C@H](O)[C@@H]3[C@H](OC(=O)[C@H]3C)[C@H]12` [Austricine hydrate], 1.1.
In the case of `C[C@]12CC[C@@H](O)C[C@@H]1CC[C@@H]1[C@@H]2CC[C@]2(C)C(=O)CC[C@@H]12` [Androsterone], the normalized bacterial growth was 0.98.
The same measure for `C[C@]12CC[C@@H](O)C[C@@H]1CC[C@@H]1[C@@H]2CC[C@]2(C)C(=O)CC[C@@H]12`: 1.12; for `CCCN1CCC[C@@H]2Cc3nc(N)ncc3C[C@H]21` [Quinelorane dihydrochloride]: 1.04.
Regarding `COc1ccc2c(c1)[C@]13CCCC[C@@H]1[C@H](C2)N(C)CC3` [Dextromethorphan hydrobromide monohydrate], the normalized bacterial growth came to 1.06 ± 0.045.
As for `COc1ccc2c(c1)[C@]13CCCC[C@@H]1[C@H](C2)N(C)CC3`, the figure is 1.07; as for `C[C@H]1O[C@@H](O[C@H]2[C@@H](O)C[C@H](O[C@H]3[C@@H](O)C[C@H](O[C@H]4CC[C@@]5(C)[C@H](CC[C@@H]6[C@@H]5CC[C@]5(C)[C@@H](C7=CC(=O)OC7)[C@@H](O)C[C@]65O)C4)O[C@@H]3C)O[C@@H]2C)C[C@H](O)[C@@H]1O`, 0.712.
